Experiment [1] has as its target T1, Ssf1-3xFLAG-3C-2xProteinA (S. cerevisiae) (UniProt P38789).
T1 sequence: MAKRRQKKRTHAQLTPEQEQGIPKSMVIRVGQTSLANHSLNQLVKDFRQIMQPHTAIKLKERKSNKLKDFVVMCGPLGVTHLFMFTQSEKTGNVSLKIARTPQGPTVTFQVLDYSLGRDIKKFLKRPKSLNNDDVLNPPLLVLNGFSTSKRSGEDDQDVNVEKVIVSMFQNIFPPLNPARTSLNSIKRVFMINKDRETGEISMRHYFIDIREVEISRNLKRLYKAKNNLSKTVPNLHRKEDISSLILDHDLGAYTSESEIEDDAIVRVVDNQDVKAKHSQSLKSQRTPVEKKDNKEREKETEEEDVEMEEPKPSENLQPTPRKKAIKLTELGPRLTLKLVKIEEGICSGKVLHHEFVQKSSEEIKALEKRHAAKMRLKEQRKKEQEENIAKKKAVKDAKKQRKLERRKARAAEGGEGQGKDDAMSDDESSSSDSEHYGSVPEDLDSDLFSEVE
In words: affinity purification with mass spectrometry; split-tag purification of pre-60S particles from steady state DBP10 yeast: IgG Sepharose on Ssf1-2xProteinA, 3C cleavage, then Strep-Tactin on 2xStrep-Dbp10, desthiobiotin elution; buffers with 50 µM ADP-BeF3; Coomassie-stained 4-20% SDS-PAGE, bands named by molecular weight, ambiguous bands by mass spectrometry.

Experiment [2] addresses T1, Ssf1-3xFLAG-3C-2xProteinA (S. cerevisiae). In words: affinity purification with mass spectrometry; split-tag purification of pre-60S particles from yeast overexpressing dbp10 R522V (β-estradiol, 1 h): IgG Sepharose on Ssf1-2xProteinA, 3C cleavage, then Strep-Tactin on Dbp10 R522V, bdNEDD8 protease elution; 50 mM Bis-Tris-Propane pH 8.0, 125 mM NaCl, 25 mM KCl, 10 mM MgCl2; Coomassie-stained 4-20% SDS-PAGE, bands named by molecular weight, ambiguous bands by mass spectrometry.

Experiment [3] has the same target. Nature of the experiment: affinity purification with mass spectrometry; purification of pre-60S intermediates from a drs1 R569Q strain by tags on Drs1 R569Q (3x-Strep) and Ssf1 (2x-ProtA); Coomassie-stained 4-20% SDS-PAGE.
Experiment [4] has as its target T2, Drs1 R569Q (3x-Strep-Drs1 R569Q) (S. cerevisiae) (UniProt P32892).
T2 sequence: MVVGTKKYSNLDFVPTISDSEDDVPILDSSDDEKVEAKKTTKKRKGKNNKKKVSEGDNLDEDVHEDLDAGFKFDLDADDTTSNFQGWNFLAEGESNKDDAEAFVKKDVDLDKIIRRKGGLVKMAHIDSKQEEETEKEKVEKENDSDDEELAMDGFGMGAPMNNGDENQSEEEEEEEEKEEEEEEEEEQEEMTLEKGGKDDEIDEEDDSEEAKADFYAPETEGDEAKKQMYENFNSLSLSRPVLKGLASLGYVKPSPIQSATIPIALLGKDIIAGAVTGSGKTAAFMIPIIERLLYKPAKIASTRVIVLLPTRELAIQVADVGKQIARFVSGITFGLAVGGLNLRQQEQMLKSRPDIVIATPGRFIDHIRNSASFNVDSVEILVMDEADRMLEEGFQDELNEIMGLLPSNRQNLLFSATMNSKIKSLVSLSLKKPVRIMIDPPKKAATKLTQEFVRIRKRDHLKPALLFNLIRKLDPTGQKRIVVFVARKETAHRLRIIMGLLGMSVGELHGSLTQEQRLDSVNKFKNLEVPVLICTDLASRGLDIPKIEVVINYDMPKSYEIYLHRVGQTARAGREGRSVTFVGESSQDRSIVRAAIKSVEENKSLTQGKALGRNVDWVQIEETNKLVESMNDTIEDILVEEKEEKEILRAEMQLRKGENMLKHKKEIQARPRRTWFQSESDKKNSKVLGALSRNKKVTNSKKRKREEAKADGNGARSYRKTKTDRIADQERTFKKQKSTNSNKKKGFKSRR
The experiment is described as above.

The target in experiment [5] is T3, Dbp10 (2xStrep-bdNEDD8-DBP10) (S. cerevisiae) (UniProt Q12389).
T3 sequence: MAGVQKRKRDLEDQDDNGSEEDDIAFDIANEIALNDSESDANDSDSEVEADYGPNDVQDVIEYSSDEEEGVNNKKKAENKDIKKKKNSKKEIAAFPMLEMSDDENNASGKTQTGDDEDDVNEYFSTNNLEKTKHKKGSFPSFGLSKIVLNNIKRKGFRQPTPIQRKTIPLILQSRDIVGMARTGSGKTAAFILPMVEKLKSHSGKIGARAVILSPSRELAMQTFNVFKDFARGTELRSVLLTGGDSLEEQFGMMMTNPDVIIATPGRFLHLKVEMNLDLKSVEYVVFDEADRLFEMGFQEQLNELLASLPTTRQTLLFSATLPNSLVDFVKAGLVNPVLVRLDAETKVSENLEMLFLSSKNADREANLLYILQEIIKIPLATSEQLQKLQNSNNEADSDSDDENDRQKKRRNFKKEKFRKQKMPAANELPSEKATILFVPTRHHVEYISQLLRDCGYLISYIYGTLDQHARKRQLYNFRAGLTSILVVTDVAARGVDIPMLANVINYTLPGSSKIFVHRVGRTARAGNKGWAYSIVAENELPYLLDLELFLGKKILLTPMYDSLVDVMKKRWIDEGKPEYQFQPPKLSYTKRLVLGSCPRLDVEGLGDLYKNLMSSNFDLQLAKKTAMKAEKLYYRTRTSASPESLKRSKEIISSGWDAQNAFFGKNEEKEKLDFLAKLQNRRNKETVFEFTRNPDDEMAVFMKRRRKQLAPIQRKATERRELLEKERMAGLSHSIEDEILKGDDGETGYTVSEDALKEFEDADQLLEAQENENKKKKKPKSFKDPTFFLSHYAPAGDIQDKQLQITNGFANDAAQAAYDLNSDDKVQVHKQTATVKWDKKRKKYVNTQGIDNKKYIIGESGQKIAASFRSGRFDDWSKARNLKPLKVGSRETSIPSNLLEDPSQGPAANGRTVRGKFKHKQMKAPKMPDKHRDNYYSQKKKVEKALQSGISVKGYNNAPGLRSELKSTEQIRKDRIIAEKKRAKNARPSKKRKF
In words: affinity purification with mass spectrometry; split-tag purification of pre-60S particles from steady state DBP10 yeast: IgG Sepharose on Ssf1-2xProteinA, 3C cleavage, then Strep-Tactin on 2xStrep-Dbp10, desthiobiotin elution; buffers with 50 µM ADP-BeF3; Coomassie-stained 4-20% SDS-PAGE, bands named by molecular weight, ambiguous bands by mass spectrometry.

Experiment [6] concerns the target T4, Dbp10 R522V (sfGFP-3xSTREP-bdNEDD8-MYC-dbp10 R522V) (S. cerevisiae) (UniProt Q12389).
T4 sequence: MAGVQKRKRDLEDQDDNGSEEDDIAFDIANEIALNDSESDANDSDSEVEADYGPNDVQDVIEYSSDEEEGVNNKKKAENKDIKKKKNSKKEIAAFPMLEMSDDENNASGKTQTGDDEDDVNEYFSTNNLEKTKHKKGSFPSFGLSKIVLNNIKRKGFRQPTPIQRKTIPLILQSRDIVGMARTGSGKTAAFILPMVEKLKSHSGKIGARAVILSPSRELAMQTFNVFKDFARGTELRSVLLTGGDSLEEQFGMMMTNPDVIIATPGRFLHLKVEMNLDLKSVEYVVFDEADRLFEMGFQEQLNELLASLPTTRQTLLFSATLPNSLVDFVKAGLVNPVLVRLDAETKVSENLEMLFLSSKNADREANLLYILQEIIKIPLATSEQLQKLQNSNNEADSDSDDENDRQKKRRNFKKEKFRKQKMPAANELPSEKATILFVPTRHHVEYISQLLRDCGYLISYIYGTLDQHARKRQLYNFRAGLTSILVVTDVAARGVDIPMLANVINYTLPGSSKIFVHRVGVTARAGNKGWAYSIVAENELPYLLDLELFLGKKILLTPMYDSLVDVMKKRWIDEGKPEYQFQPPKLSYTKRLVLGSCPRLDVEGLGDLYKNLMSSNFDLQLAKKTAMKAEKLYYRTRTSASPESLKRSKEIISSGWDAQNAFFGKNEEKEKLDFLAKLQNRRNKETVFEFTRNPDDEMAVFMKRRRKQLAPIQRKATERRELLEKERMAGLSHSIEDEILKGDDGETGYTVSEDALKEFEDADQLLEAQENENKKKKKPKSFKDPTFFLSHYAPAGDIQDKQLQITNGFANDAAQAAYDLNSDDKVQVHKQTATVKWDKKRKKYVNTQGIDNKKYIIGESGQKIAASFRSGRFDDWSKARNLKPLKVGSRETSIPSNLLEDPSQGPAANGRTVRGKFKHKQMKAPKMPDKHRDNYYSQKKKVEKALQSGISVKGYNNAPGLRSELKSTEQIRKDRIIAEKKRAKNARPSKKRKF
In words: affinity purification with mass spectrometry; split-tag purification of pre-60S particles from yeast overexpressing dbp10 R522V (β-estradiol, 1 h): IgG Sepharose on Ssf1-2xProteinA, 3C cleavage, then Strep-Tactin on Dbp10 R522V, bdNEDD8 protease elution; 50 mM Bis-Tris-Propane pH 8.0, 125 mM NaCl, 25 mM KCl, 10 mM MgCl2; Coomassie-stained 4-20% SDS-PAGE, bands named by molecular weight, ambiguous bands by mass spectrometry.

These are yes or no findings as the source states them, for the method shown. Binding seen in cells or lysates may run through a third protein. A yes stands for co-enrichment or nearness to the bait. Other partners may have been found. For some assays here: Tags and fused reporters may be left off the sequences shown.

B1: Drs1 (enzyme, UniProt P32892 1-752)
chain: MVVGTKKYSNLDFVPTISDSEDDVPILDSSDDEKVEAKKTTKKRKGKNNKKKVSEGDNLDEDVHEDLDAGFKFDLDADDTTSNFQGWNFLAEGESNKDDAEAFVKKDVDLDKIIRRKGGLVKMAHIDSKQEEETEKEKVEKENDSDDEELAMDGFGMGAPMNNGDENQSEEEEEEEEKEEEEEEEEEQEEMTLEKGGKDDEIDEEDDSEEAKADFYAPETEGDEAKKQMYENFNSLSLSRPVLKGLASLGYVKPSPIQSATIPIALLGKDIIAGAVTGSGKTAAFMIPIIERLLYKPAKIASTRVIVLLPTRELAIQVADVGKQIARFVSGITFGLAVGGLNLRQQEQMLKSRPDIVIATPGRFIDHIRNSASFNVDSVEILVMDEADRMLEEGFQDELNEIMGLLPSNRQNLLFSATMNSKIKSLVSLSLKKPVRIMIDPPKKAATKLTQEFVRIRKRDHLKPALLFNLIRKLDPTGQKRIVVFVARKETAHRLRIIMGLLGMSVGELHGSLTQEQRLDSVNKFKNLEVPVLICTDLASRGLDIPKIEVVINYDMPKSYEIYLHRVGRTARAGREGRSVTFVGESSQDRSIVRAAIKSVEENKSLTQGKALGRNVDWVQIEETNKLVESMNDTIEDILVEEKEEKEILRAEMQLRKGENMLKHKKEIQARPRRTWFQSESDKKNSKVLGALSRNKKVTNSKKRKREEAKADGNGARSYRKTKTDRIADQERTFKKQKSTNSNKKKGFKSRR
In the case of B1, the binding entry in experiment [1] and in experiment [2] was “binds” each time.

B2: Nsa1 (protein, UniProt P53136 1-463)
chain: MRLLVSCVDSGSIKEVLCNIGTDTSVQSALQPFHVAPHLAEGLKAYVDRMWVISEDEAILARNSGVVELVKISKHLKENEALQVDPKGESKNEKSLSDDLPKFDISEFEITSSVSDLFDDAKLESLSSKSVKRTKLVDGFVTLCPIKKDSSNNTFVAATKSGLLHIIKKGEDKKLIKLASLGLKAPVEFLQLYDLEDTDTDKYIFAYGGEENLIKLVEIDSSFQSLKQIWEAKNVKNDRLDMRVPVWPMALRFLEPSPGKTEKGKLNYQFAAITRWSHLTKYSTQHGRKPFAQIDLLPNREPLSQMEVFDAKGENVVSSLGNFQSETFNELNVITTDYKKNVFKFDGNGRMLGKVGRDDITGSSTYIHVHDGKYLLQGGLDRYVRIFDIKTNKMLVKVYVGSRINFIVMLDDVEIEMPLSPSAKAAKGKQKRKVTELEEDADELWNKLEGKVAASKASKKSKI
B2: the binding entry in experiment [3], in experiment [4], in experiment [1] and in experiment [5] was “binds” throughout.

B3: Nsa1 ∆417-438 (protein, UniProt P53136)
chain: MRLLVSCVDSGSIKEVLCNIGTDTSVQSALQPFHVAPHLAEGLKAYVDRMWVISEDEAILARNSGVVELVKISKHLKENEALQVDPKGESKNEKSLSDDLPKFDISEFEITSSVSDLFDDAKLESLSSKSVKRTKLVDGFVTLCPIKKDSSNNTFVAATKSGLLHIIKKGEDKKLIKLASLGLKAPVEFLQLYDLEDTDTDKYIFAYGGEENLIKLVEIDSSFQSLKQIWEAKNVKNDRLDMRVPVWPMALRFLEPSPGKTEKGKLNYQFAAITRWSHLTKYSTQHGRKPFAQIDLLPNREPLSQMEVFDAKGENVVSSLGNFQSETFNELNVITTDYKKNVFKFDGNGRMLGKVGRDDITGSSTYIHVHDGKYLLQGGLDRYVRIFDIKTNKMLVKVYVGSRINFIVMLDDVEIEEDADELWNKLEGKVAASKASKKSKI
Consider B3, for which the binding entry in experiment [2] and in experiment [6] was “binds” each time.
